Experimental data taken from the supplement of paper PMC3334620.
In all, about 33,000 sequences were measured (“E-score (-0.5 to 0.5)”: median about -0.016, highest 2% from about 0.3 on). This is one part of the list.

Target: T1, Yer184c (UniProt P39961)
T1 sequence: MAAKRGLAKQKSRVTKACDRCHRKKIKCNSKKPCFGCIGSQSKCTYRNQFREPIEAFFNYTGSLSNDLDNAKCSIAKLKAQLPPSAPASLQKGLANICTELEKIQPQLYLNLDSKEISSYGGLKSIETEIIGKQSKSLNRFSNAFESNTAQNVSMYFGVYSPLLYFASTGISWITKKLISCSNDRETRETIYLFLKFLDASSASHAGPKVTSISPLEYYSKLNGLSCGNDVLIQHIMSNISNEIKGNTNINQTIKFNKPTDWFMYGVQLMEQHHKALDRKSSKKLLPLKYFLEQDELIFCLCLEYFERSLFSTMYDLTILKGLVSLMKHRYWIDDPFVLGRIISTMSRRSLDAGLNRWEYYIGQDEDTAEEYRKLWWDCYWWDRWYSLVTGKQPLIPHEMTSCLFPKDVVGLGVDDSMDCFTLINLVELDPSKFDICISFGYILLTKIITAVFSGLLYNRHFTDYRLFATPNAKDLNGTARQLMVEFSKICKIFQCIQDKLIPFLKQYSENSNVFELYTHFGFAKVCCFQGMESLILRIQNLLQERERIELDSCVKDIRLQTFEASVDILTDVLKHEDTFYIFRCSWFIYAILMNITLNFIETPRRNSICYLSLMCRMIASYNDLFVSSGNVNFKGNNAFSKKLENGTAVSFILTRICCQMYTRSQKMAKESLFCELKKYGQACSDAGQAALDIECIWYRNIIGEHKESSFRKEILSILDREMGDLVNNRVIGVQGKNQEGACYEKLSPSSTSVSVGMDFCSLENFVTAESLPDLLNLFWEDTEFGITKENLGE
Assay: PBM E-score (8-mer binding enrichment) (E-score (-0.5 to 0.5)); higher = stronger / more preferred TF binding
Settings: protein concentration: 100 nM; construct: GST-full length
How it was run: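 GST-tagged yeast TFs (full-length or DNA-binding domain) were made by PURExpress in vitro transcription/translation and applied at about 100-200 nM to universal all-10-mer Agilent arrays. The arrays were made double-stranded by primer extension, on fresh or once-stripped slides. Bound protein was detected with fluorescent anti-GST, and scans were normalised with masliner. Each ungapped eight-base word, pooled with its reverse complement, received an E-score (modified Wilcoxon-Mann-Whitney statistic) from the Universal PBM Analysis Suite.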

Sequence | PBM E-score
TAGTAGAA | 0.105
ATTGTAGA | -0.0109
GGGCTTAA | -0.0829
AGTTATTC | 0.00474
ACTTGGTA | 0.073
ATACAGTG | -0.152
GGGGTACC | -0.269
CTGGGGAC | -0.316
AGTGGTTA | -0.151
AGGGTAGG | -0.181
CCATACGC | -0.0778
GTCGTGCA | -0.124
AAAGACTG | -0.165
AAGCCTTA | -0.06
ACGGAGCA | 0.059
ACTTTACT | -0.143
CAACTGGC | -0.0795
CCTCCACC | -0.245
GCTGACCC | -0.208
GAGATCGA | 0.114
ACGATCAA | -0.002
AATAACGT | 0.0311
CGTTAACA | 0.0217
CGGGAGTC | -0.0319
ATAACAGG | -0.0751

Sequence | PBM E-score
AACACTTA | -0.0758
CATGGATA | 0.0297
GCGAAAAC | -0.00412
CGTGTCGC | 0.0919
ACAGTCAG | -0.108
ACAATTAA | 0.228
CACCAACC | -0.0529
CACACTGG | -0.225
AGAAGCGA | -0.0747
CAATCAGA | -0.0962
AAGATGAG | -0.2
GAGCTAGC | -0.0773
GATAGTGA | 0.0506
CCAAGGGG | -0.117
CTCGCTAC | -0.125
GAGCCATA | -0.0488
AAACCATA | 0.0966
AAGAGCAC | 0.0565
CCACGCGA | -0.161
CAGAAGTA | 0.0745
CTCGGCTC | 0.237
CATGGGGC | -0.178
GCAGCCAA | -0.00398
ATGAGTGA | -0.0741
TCAACCCA | -0.106

Sequence | PBM E-score
AGGTAAGC | -0.198
ATGTGAAG | 0.143
TGTAGTAA | 0.0976
AATTGAAA | 0.0463
CATCATTC | -0.03
GATAATCA | 0.101
CACTGAGG | -0.0546
CCAGAATC | -0.00204
GCTCTAAC | -0.2
ATTCTGAC | -0.0112
ATCGACCG | 0.166
CGAGTTGC | 0.0678
GCCTCACA | -0.0173
CGAGAAGA | -0.0036
CGAAATCA | 0.207
ATCGCGAA | 0.273
AAGGCGAT | -0.0705
CTGGGCGA | -0.206
ACAAACGA | 0.193
CCAGCCGG | 0.24
TCAGTGGA | -0.181
AGTGATAG | -0.218
TGCACGAA | -0.00528
TCAAAAAA | 0.136
ACTGTTAT | 0.0534

Sequence | PBM E-score
AAGTAACT | 0.00991
ATCTGCAT | -0.0604
CTAACCCC | -0.208
GAGGGATA | -0.198
CGCTTACG | -0.213
ATTACGTG | -0.0902
GGATCTAA | 0.0653
ACACTCCA | -0.127
CTATCAGC | 0.0672
CCATTGAA | 0.107
GGATCGTA | -0.0887
GTCGGCTA | 0.153
AGTATCAT | 0.0809
AGTCTTTA | -0.06
CTCGCGAC | -0.064
CCAAGACA | 0.0888
ATAGATAG | 0.0386
ACGCACAT | -0.0963
TACGGGCA | 0.00579
CCGAAACA | 0.268
ACACGTCA | -0.15
ATTCCTCA | 0.0275
CTTGACTA | 0.0268
AGCTGGAA | -0.213
CCAAGCAG | -0.19

Sequence | PBM E-score
AGGCGTGG | -0.313
AACCAGTC | -0.0109
AATCTGTG | -0.0639
AACTAGCG | 0.0167
AGACGGCG | 0.0535
CTCATGAC | 0.0456
AGTCGGAG | -0.0456
GGCACGTA | -0.0256
GCAACGGC | 0.134
ATACGGGG | -0.124
CTTTCGAC | -0.108
AAACTGGC | -0.166
ATCAGAAC | 0.143
AGGGGGTA | -0.452
AGCTGGCA | -0.144
CCTTGCGA | -0.165
ACACATTA | 0.0161
ACGCATAA | 0.0303
GGCCCTCA | -0.357
AGCCCTGG | -0.263
GCCACTAC | -0.187
ACAAAGCT | 0.123
AATAGTAG | 0.149
AAAGTACG | 0.00128
GTCATACA | -0.0809

Sequence | PBM E-score
GTTTGATA | 0.193
CGCAATTA | 0.153
ATTATACC | 0.227
TAGCCAAA | -0.0129
ATATTGCA | 0.0979
CTCTAGTC | -0.244
TGACCCAA | -0.169
ATATCGCC | 0.191
GCCTTCAA | -0.0184
AGTGCATG | -0.111
AACACACT | -0.0687
CCTAGCGC | 0.0279
ACTTTCAC | 0.085
CAACCGTC | -0.00179
CACCAATA | 0.011
CGCACGTC | -0.0918
GCAATTCA | 0.0386
GAGCCGTA | 0.307
CCCCACTC | -0.329
AGCTGGCG | -0.266
ACCTGCTC | -0.143
CATGTAAC | -0.0822
TAGAGTGA | -0.106
AGACTAAT | 0.168
ACCAGATA | 0.142

Sequence | PBM E-score
AAGAGGTA | -0.129
GACATCTC | -0.0181
CGTTGTAG | 0.165
AACGCTTA | -0.163
TATGCGAA | 0.106
CTTAGGCA | -0.166
ACCGTCAC | -0.186
CAAAGGAA | 0.106
AAGTCTAT | -0.0518
CATTTGGG | -0.207
CGCTATTA | 0.126
AGGTATCG | 0.134
CTGGGGTC | -0.251
GACCCCGC | -0.102
AGTGGACG | 0.0349
ACTATTTG | 0.0163
AACCTGTA | -0.109
CTTGGCTA | -0.17
CCACCCTC | -0.0355
CCCAGGAA | -0.237
ATGCCGAA | 0.408
GAAGACGA | -0.0807
ACGTTGCA | 0.0145
ATTCGAAT | -0.0224
AGCAATTA | 0.125

Sequence | PBM E-score
AACTGAGG | -0.00025
GGTGAACA | -0.0714
AATGACTG | 0.0667
ACGCAATC | -0.0855
ACGTTCCA | -0.125
AACTAGGT | 0.161
CCTGGACG | -0.284
AAATCTCT | -0.0406
GTAACTAC | 0.0431
CGGAGGCA | 0.0415
CGACAGAC | -0.206
AGGTACAA | 0.00829
CGAAGCCA | -0.0538
ATTCCGAC | 0.211
AACCACAA | 0.0437
GCGCCTTA | -0.00956
AGTGCGAT | -0.115
TCTGCCCA | -0.0708
GGTTTTGA | 0.177
GGTTCAGA | -0.0461
CTTTTGGA | 0.0266
AGAGGACC | -0.232
CCGATACC | 0.0384
TCCAGAGA | -0.149
TCAATAAA | 0.141

Part of the list above, tab-delimited.
Sequence	PBM E-score
CGAAGCCA	-0.0538
ATTCCGAC	0.211

Additional records follow.

Sequence | PBM E-score
CCCTCACA | -0.0867
ACCATCTC | -0.0756
CCTCCTGC | -0.278
AACCTTGG | -0.201
CGCATTAA | 0.135
CTGGACAA | -0.116
CAACCCAG | -0.222
ACCACCGA | -0.0296
CGACAAAA | 0.229
GACCTCAA | 0.0464
CAGCGAAG | -0.0684
CCCACCGC | 0.00758
ATCTCCTG | 0.0927
GCACGCCA | -0.149
ATTGTTCG | 0.346
CAACCGAG | 0.143
GCTCGAAA | 0.106
GCGGCGCC | 0.299
TCTCTAAA | 0.00454

7 records drawn at random from the list so far, as already listed:
Sequence | PBM E-score
GAGCCATA | -0.0488
AATGACTG | 0.0667
ACACTCCA | -0.127
CATGTAAC | -0.0822
AAAGACTG | -0.165
GACATCTC | -0.0181
TCTGCCCA | -0.0708

Single values from the entries so far:
In PBM E-score, GCGGCGCC reads 0.299
In PBM E-score, CCCACCGC reads 0.00758
In PBM E-score, CGACAAAA reads 0.229
In PBM E-score, ATCTCCTG reads 0.0927
